{
  "source": "paper PMC9067507",
  "about": "“F/YGG-motif is an intrinsically disordered nucleic-acid binding motif”",
  "assay_in_all_cases": "MST",
  "key": {"F/YGG WT peptide (human)": {"target": "T1, F/YGG WT peptide (human) (UniProt P22626)", "T1 sequence (looked up)": "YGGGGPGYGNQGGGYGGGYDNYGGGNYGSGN", "conditions": "10 mM MgCl2, RNA titrated; MST: 20 mM HEPES pH 7.5, 10 mM MgCl2, 0.05% Tween-20; 420 nM labelled U30 with protein titrated, or labelled peptide with RNA titrated; temperature not stated; residues 269-299; protein details: fluorescent label"}, "[1]": {"target": "T2, F/YGG Y to F peptide Y269F,Y276F,Y283F,Y287F,Y290F,Y295F (human) (UniProt P22626)", "T2 sequence (looked up, limits assumed)": "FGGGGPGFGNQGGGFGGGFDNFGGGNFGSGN", "conditions": "10 mM MgCl2, RNA titrated, text gives 10 uM; MST: 20 mM HEPES pH 7.5, 10 mM MgCl2, 0.05% Tween-20; 420 nM labelled U30 with protein titrated, or labelled peptide with RNA titrated; temperature not stated; protein details: fluorescent label"}, "[2]": {"target": "T3, F/YGG Y to A peptide Y269A,Y276A,Y283A,Y287A,Y290A,Y295A (human) (UniProt P22626)", "T3 sequence (looked up, limits assumed)": "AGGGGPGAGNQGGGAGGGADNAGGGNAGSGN", "conditions": "10 mM MgCl2, RNA titrated, binding detected but too weak to measure; MST: 20 mM HEPES pH 7.5, 10 mM MgCl2, 0.05% Tween-20; 420 nM labelled U30 with protein titrated, or labelled peptide with RNA titrated; temperature not stated; protein details: fluorescent label"}},
  "note": "Construct, isoform or probe ends are uncertain for at least one entry. For part of these data: A weaker result is weaker than the reference pair of the same experiment. For part of these data: At least one verdict was read from the data and is not stated in words by the source. Where a protein sequence is shown, tags need not be part of it.",
  "data": [
    {"sequence": "UUUUUUUUUUUUUUUUUUUUUUUUUUUUUU [U30 (unlabelled, titrated against peptide)]", "values": [
      {"measurement": "Kd", "setting": "F/YGG WT peptide (human)", "result": 31, "unit": "µM"},
      {"measurement": "Kd", "setting": "[1]", "result": 11, "unit": "µM"},
      {"measurement": "binding result", "setting": "[2]", "result": "binds more weakly"}
    ]}
  ]
}
